{"source": "PubChem BioAssay AID1347131", "about": "(National Center for Advancing Translational Sciences (NCATS), 2019)", "note": "Hit rate of the full screen: of about 410,000 compounds, about 2,000 (0.49%) were called active. The shares of active, inactive and inconclusive entries below differ from those in the screen. Calls come from the whole dose curve; tested in HEK293 reporter line. Potencies of inconclusive entries are doubtful fits and often do not repeat. Potency is the fitted concentration of half-maximal effect."}
{"assay": "qHTS Assay for Foot and Mouth Disease Virus Antivirals: Primary Screen against the MLPCN compound library; note: nearly all actives have a fitted effect of over 55% in size", "settings": "FMDV antiviral cell-based qHTS; activity, negative = inhibition: at 57.9 µM (top of the series)"}
{"smiles": "COc1ccc(NC(=O)CCS(=O)(=O)c2nc(-c3cccs3)cc(C(F)(F)F)n2)cc1OC", "Potency": "inconclusive: 22.4 µM [inhibitor, partial curve, poor fit]"}
{"smiles": "O=S(=O)(c1ccc(Br)cc1)N1CCN=C1SCc1cccnc1", "Potency": "inconclusive: 11.2 µM [inhibitor, partial curve]"}
{"smiles": "O=C(/C=C/c1ccc(Cl)cc1Cl)Nc1cccc(S(=O)(=O)NC2=NCCC2)c1", "Potency": "inconclusive: 14.1 µM [inhibitor, single point]"}
{"smiles": "CN(C)CC1CCC/C(=C\\c2ccc(OC(=O)/C=C/c3ccc(Cl)c(Cl)c3)cc2)C1=O", "note": "(configuration not stated)", "Potency": "inconclusive: 39.8 µM [inhibitor, partial curve, poor fit]"}
{"smiles": "CCCCN(C(C)=O)c1ccc2c(c1)C1CC2CCN1C(=O)OCc1ccccc1", "note": "(configuration not stated)", "Potency": "inconclusive: 39.8 µM [inhibitor, partial curve, poor fit]"}
{"smiles": "Cc1cccc(Cn2c(=O)n(-c3ccc(CC(=O)NCc4ccco4)cc3)c(=O)c3sccc32)c1", "Potency": "inconclusive: 12.6 µM [inhibitor, partial curve]"}
{"smiles": "COC(=O)c1ccc(CN2CCCC(C(=O)Nc3cccc(-n4cnnn4)c3)C2)cc1", "note": "(configuration not stated)", "Potency": "inconclusive: 28.2 µM [inhibitor, partial curve, poor fit]"}
{"smiles": "COc1ccc(CN2CCN(C(=O)c3ccc(S(=O)(=O)N4CCCCCC4)cc3)CC2)cc1", "Potency": "inconclusive: 20 µM [inhibitor, partial curve, poor fit]"}
{"smiles": "O=C1/C(=C/c2cccs2)COc2ccccc21", "Potency": "inconclusive: 44.7 µM [inhibitor, single point]"}
{"smiles": "COc1ccccc1N1CCN(C(=O)CSc2nnc3n2C(C)(C)Cc2ccccc2-3)CC1", "Potency": "inconclusive: 15.8 µM [inhibitor, partial curve, poor fit]"}
{"smiles": "CC(C)Cc1ccc(C2=CSC3=NCCN23)cc1", "Potency": "inconclusive: 2.24 µM [inhibitor, full curve]"}
{"smiles": "COc1ccccc1-c1nc(-c2ccccc2)nc(N2CCN(C)CC2)c1C#N", "activity, negative = inhibition": "inactive: -30.4%"}
{"smiles": "CCOc1ccc(C(=O)Nc2ccc3c(c2)N(C(C)=O)CCC3)cc1OCC", "Potency": "inconclusive: 14.1 µM [inhibitor, single point]"}
{"smiles": "COc1ccc(OC)c(S(=O)(=O)N2CCC(C(=O)N3CCN(Cc4ccccc4)CC3)CC2)c1", "activity, negative = inhibition": "inconclusive: -45.3% [inhibitor]"}
{"smiles": "Cc1c(C(=O)OCC2CCCO2)[nH]c2c1C(=O)CC(c1ccc(N(C)C)cc1)C2", "note": "(configuration not stated)", "Potency": "inconclusive: 20 µM [inhibitor, partial curve, poor fit]"}
{"smiles": "O=C(Nc1ncccn1)c1cc(-c2ccc(F)cc2)nc2ccccc12", "Potency": "inconclusive: 31.6 µM [inhibitor, single point]"}
{"smiles": "Cc1cccc(CNc2ncnc3ccc(-c4ccc5c(c4)OCCO5)cc23)c1", "activity, negative = inhibition": "inactive: -20.3%"}
{"smiles": "COc1ccc(/C=N/Nc2nc(N3CCCC3)nc(N3CCCC3)n2)c(OC)c1OC", "Potency": "inconclusive: 28.2 µM [inhibitor, partial curve, poor fit]"}
{"smiles": "CCCC(=O)C1=C(O)C(C(=O)OC)C(C)(C)CC1=Nc1ccc(C)cc1", "note": "(configuration not stated)", "Potency": "inconclusive: 31.6 µM [inhibitor, partial curve, poor fit]"}
{"smiles": "CSc1nnc(NC(=O)c2nc(S(=O)(=O)Cc3ccc(C)cc3)ncc2Cl)s1", "Potency": "inconclusive: 12.6 µM [inhibitor, partial curve, poor fit]"}
{"smiles": "CCN1CCN(C(c2cccnc2)c2cc(Cl)c3cccnc3c2O)CC1", "note": "(configuration not stated)", "Potency": "inconclusive: 22.4 µM [inhibitor, single point]"}
{"smiles": "NC(=O)c1ccsc1NC(=O)c1ccc(S(=O)(=O)N2CCCc3ccccc32)cc1", "Potency": "inconclusive: 35.5 µM [inhibitor, partial curve, poor fit]"}
{"smiles": "CCOC(=O)/C(=C\\c1ccc(OC(F)F)cc1)C1=Nn2c(nnc2-c2ccc(Cl)cc2)SC1", "Potency": "inconclusive: 12.6 µM [inhibitor, partial curve, poor fit]"}
{"smiles": "O=C1c2ccccc2C(=O)C1(c1ccccc1)N1CCN(c2cccc(C(F)(F)F)c2)CC1", "Potency": "inconclusive: 4.47 µM [inhibitor, partial curve, poor fit]"}
{"smiles": "C=C1C(=O)OC2CC3(C)OC3CCC(C)=CC(OC(C)=O)C12", "note": "(configuration not stated)", "Potency": "inconclusive: 35.5 µM [inhibitor, partial curve, poor fit]"}
{"smiles": "COC(=O)c1cc2ccccc2c(-c2c(OC)c(C(=O)OC)cc3ccccc23)c1OC", "Potency": "inconclusive: 4.47 µM [inhibitor, full curve]"}
{"smiles": "CC1CCCN(c2ccc3nc4ccccc4c(=O)n3n2)C1", "note": "(configuration not stated)", "Potency": "inconclusive: 12.6 µM [inhibitor, partial curve, poor fit]"}
{"smiles": "Cc1cccc(C)c1NC(=O)c1cc(-c2ccccn2)nc2ccccc12", "activity, negative = inhibition": "inactive: -31.1%"}
{"smiles": "CC(C)(C)c1ccc(S(=O)(=O)/C=C\\C#N)cc1", "Potency": "inconclusive: 39.8 µM [inhibitor, partial curve, poor fit]"}
{"smiles": "CC(C)CC(=O)Nc1ccccc1N1CCN(c2ccccc2)CC1", "activity, negative = inhibition": "inactive: -32%"}
{"smiles": "O=C(C1=NNCC1c1ccccc1)C1CO1", "note": "(configuration not stated)", "Potency": "inconclusive: 2.82 µM [inhibitor, full curve]"}
{"smiles": "C/C(=N\\NC(=O)c1ccccc1F)c1ccccn1", "Potency": "inconclusive: 12.6 µM [inhibitor, partial curve, poor fit]"}
{"smiles": "Cc1ccc(C(=O)CCC(=O)N2CCN(c3ccc(F)cc3)CC2)cc1", "Potency": "inconclusive: 5.01 µM [inhibitor, partial curve, poor fit]"}
{"smiles": "CC(=O)Nc1ccc(C2C(=O)c3ccccc3C2=O)cc1", "Potency": "inconclusive: 20 µM [inhibitor, partial curve, poor fit]"}
{"smiles": "COc1ccc(N2CCN(C(=O)Cn3cnc4c(cnn4-c4ccc(C)cc4)c3=O)CC2)cc1", "activity, negative = inhibition": "inactive: -32.4%"}
{"smiles": "O=C(Nc1ccc(-c2nc3ccccc3o2)c(O)c1)c1cc(-n2cnnc2)ccc1Cl", "Potency": "inconclusive: 12.6 µM [inhibitor, partial curve, poor fit]"}
{"smiles": "Cc1cc2nc3c(=O)[nH]c(=O)nc-3n(C)c2cc1C=O", "Potency": "inconclusive: 15.8 µM [inhibitor, partial curve, poor fit]"}
